# Assay: general procedure: Boc solid-phase peptide synthesis; TAMPAL resin (MBHA) for thioesters; Pam resin for test peptides; HBTU/DIEA (in situ neutralization)
# Details: whole synthesis, scale of the general procedure 0.25 mmol
Substance,isolated yield [%],difficulty met
Fmoc-D(Troc)YAKYAKL,15,–
LYRAE(OFm)-thioester,–,The OFm group was associated with the presence of multiple impurities

# Reference: patent US7566697B2 (Amylin Pharmaceuticals, Inc., priority 2002, dated 2009)
